# From PubChem BioAssay (EPA / NIEHS)
# Chains of the proteins cited; added tags and fusions are not shown. Lines headed by an entry give the natural chain unless they say otherwise; changes in a name come on top.
# UniProt Q92753: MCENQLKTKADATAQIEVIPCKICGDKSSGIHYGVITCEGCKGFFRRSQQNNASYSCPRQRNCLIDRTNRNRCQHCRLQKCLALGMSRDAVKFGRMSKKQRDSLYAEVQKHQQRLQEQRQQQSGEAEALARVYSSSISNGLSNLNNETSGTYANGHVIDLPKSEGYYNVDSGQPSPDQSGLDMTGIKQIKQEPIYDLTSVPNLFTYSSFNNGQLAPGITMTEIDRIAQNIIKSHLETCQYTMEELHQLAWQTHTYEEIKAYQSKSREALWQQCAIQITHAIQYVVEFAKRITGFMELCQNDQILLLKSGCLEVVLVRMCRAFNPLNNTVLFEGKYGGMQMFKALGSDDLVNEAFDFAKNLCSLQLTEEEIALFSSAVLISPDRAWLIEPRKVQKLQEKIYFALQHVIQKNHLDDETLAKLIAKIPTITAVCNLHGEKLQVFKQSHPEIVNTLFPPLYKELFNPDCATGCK
# UniProt P51449: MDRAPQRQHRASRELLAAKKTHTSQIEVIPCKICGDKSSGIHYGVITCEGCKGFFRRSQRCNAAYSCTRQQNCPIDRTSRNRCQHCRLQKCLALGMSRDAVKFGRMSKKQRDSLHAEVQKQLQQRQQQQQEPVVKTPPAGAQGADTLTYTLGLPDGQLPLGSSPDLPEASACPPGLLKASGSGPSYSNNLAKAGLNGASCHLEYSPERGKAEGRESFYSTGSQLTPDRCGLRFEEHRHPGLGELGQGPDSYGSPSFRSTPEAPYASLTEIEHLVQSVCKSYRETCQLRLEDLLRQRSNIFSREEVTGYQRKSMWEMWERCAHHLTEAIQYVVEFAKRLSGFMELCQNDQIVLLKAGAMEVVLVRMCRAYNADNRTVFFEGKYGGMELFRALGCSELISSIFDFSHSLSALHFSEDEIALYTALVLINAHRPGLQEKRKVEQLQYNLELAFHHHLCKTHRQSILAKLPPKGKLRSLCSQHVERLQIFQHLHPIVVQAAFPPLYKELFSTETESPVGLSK
# UniProt P28702: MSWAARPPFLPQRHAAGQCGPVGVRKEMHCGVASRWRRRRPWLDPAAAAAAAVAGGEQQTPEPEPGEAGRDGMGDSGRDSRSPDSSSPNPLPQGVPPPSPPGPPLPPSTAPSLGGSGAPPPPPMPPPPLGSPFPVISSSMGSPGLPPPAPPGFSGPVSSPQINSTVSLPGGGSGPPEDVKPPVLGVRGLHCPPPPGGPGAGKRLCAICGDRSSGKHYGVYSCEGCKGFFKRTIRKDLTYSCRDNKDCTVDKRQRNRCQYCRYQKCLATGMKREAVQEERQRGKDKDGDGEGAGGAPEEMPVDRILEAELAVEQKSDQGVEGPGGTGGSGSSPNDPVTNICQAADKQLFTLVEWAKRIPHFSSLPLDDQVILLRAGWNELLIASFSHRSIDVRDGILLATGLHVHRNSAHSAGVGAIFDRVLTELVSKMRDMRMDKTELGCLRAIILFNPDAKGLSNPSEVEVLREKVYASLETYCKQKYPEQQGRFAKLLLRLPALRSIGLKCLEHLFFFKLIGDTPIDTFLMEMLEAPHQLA
# UniProt P19793: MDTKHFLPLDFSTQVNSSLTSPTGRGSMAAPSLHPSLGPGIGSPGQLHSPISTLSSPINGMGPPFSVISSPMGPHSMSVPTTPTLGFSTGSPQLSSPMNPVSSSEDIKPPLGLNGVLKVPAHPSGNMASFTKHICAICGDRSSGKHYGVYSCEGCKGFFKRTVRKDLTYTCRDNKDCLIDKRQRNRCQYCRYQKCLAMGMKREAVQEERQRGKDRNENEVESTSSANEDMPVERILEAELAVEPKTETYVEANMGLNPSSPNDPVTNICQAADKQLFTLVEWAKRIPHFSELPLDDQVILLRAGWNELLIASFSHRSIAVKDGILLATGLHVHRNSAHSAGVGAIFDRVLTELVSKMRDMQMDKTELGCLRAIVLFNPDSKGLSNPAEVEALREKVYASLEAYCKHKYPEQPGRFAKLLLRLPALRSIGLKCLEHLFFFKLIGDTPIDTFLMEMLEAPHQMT
# UniProt P10827: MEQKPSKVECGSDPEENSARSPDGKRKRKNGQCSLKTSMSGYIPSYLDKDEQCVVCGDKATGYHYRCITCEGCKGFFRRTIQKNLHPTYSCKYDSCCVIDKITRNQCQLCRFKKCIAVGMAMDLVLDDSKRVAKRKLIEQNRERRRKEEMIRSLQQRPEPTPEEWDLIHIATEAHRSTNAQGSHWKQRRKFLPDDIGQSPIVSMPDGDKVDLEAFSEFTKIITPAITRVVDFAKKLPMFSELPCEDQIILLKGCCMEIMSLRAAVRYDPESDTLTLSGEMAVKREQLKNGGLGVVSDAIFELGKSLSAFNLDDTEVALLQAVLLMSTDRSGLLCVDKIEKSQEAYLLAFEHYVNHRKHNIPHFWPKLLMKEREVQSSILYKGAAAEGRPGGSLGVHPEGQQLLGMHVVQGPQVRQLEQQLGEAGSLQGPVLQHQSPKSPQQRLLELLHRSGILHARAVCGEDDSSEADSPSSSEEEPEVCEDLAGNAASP
# UniProt P11473: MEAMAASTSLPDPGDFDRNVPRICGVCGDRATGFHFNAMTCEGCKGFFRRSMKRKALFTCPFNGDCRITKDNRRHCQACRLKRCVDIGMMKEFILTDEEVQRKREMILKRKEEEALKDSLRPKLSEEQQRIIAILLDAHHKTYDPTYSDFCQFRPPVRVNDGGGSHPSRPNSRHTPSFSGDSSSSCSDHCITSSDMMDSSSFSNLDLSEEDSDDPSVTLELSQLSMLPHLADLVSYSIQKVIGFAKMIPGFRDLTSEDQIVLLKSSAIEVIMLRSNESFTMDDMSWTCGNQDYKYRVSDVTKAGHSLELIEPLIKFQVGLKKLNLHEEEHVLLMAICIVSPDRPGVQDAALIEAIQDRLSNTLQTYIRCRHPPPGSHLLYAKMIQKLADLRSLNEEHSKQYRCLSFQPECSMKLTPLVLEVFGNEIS
# Inconclusive means that the source gave no clear call. Such entries were picked first, then a sample of the others. Where the call is inconclusive, the potency comes from a doubtful curve fit. Activity calls are given as the source filed them. The calls were made as follows: active = hit-call score of the fitted dose curve at least 0.9, where 1 is the maximum; inconclusive = response in the unintended direction; inactive = score below 0.9.
# Columns and labels:
# [1] = target: human RAR-related Orphan Receptor beta (RORb), RORB (gene 6096) (UniProt Q92753); assay: ATG_RORb_TRANS: Attagene TRANS-FACTORIAL HepG2 Assay for human RAR-related Orphan Receptor beta (RORb) (AID 2283010);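 as to AC50: potency for increased reporter mRNA meaning activation of RORb-Gal4 chimera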
# Procedure, shortened: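 HepG2 cells transiently transfected with GAL4-UAS reporter units expressing chimeric NR-Gal4 protein; reporter mRNA measured 24 h after dosing by RT-PCR, 6-FAM labelling and capillary electrophoresis. Gain-of-signal fitted relative to DMSO baseline.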
# [2] = target: human RAR-related Orphan Receptor gamma (RORg), RORC (gene 6097) (UniProt P51449); assay: ATG_RORg_TRANS: Attagene TRANS-FACTORIAL HepG2 Assay for human RAR-related Orphan Receptor gamma (RORg) (AID 2283011);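 as to AC50: potency for induction of reporter transcripts above DMSO so activators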
# Procedure, shortened: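 Activity is scored as increase in GAL4-UAS reporter mRNA over DMSO, detected by fluorescent RT-PCR and capillary electrophoresis in HepG2 cells transiently expressing a RORg-Gal4 chimera, 24 h after dosing.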
# [3] = target: human Retinoid X Receptor beta (RXRb), RXRB (gene 6257) (UniProt P28702); assay: ATG_RXRb_TRANS: Attagene TRANS-FACTORIAL HepG2 Assay for human Retinoid X Receptor beta (RXRb) (AID 2283013)
# Procedure, shortened: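 HepG2 cells were transiently transfected with multiplexed GAL4-UAS reporters and a chimeric RXRb-Gal4 construct, then exposed for 24 h. Reporter mRNA was quantified by RT-PCR, FAM labeling, HpaI digestion and capillary electrophoresis; gain of signal was scored against DMSO.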
# [4] = target: Retinoic acid receptor RXR-alpha (Homo sapiens) (UniProt P19793); assay: ATG_RXRa_TRANS: Attagene TRANS-FACTORIAL HepG2 Assay for human Retinoid X Receptor alpha (RXRa) (AID 2283012)
# Procedure, shortened: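 HepG2 cells transiently transfected with GAL4-UAS reporter units and chimeric RXRa-Gal4 protein, treated 24 h. Reporter mRNA measured by RT-PCR, fluorescent labelling, HpaI digestion and capillary electrophoresis. Induction fitted against DMSO.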
# [5] = target: human Thyroid Receptor alpha (THRa1), THRA (gene 7067) (UniProt P10827); assay: ATG_THRa1_TRANS: Attagene TRANS-FACTORIAL HepG2 Assay for human Thyroid Receptor alpha (THRa1) (AID 2283014)
# Procedure, shortened: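 First, HepG2 cells receive multiple GAL4-UAS reporter units and the chimeric receptor. They are then dosed for 24 h, after which RNA is reverse-transcribed, amplified, labelled, HpaI-cut and sized by capillary electrophoresis; gain relative to DMSO is scored.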
# [6] = target: human Vitamin D Receptor (VDR), VDR (gene 7421) (UniProt P11473); assay: ATG_VDR_TRANS: Attagene TRANS-FACTORIAL HepG2 Assay for human Vitamin D Receptor (VDR) (AID 2283022)
# Procedure, shortened: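 Fluorescence of labelled reporter cDNA fragments, resolved by capillary electrophoresis, gives mRNA induction after 24 h treatment of HepG2 cells carrying transfected Gal4-fusion reporter units. Activity is fitted in the positive direction with DMSO as baseline.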
smiles,measurement,setting,value
OCC(O)CC(F)(F)C(F)(F)C(F)(F)C(F)(F)C(F)(F)C(F)(F)C(F)(F)C(F)(F)F (stereo not drawn),outcome,[1],inactive
same,AC50,[2],inconclusive: 50 µM
same,outcome,[4],inactive
same,AC50,[3],inconclusive: 50 µM
same,outcome,[5],inactive
same,outcome,[6],inactive
CC(CCO)CCCC(C)(C)O (stereo not drawn),AC50,[1],inconclusive: 99.5 µM
same,outcome,[2],inactive
same,AC50,[3],inconclusive: 99.5 µM
COc1ccnc(CS(=O)c2nc3cc(OC(F)F)ccc3[nH]2)c1OC (stereo not drawn),outcome,[1],inactive
same,outcome,[2],inactive
same,outcome,[4],inactive
same,AC50,[5],inconclusive: 100 µM
O=C(OC(=O)C(F)(F)C(F)(F)F)C(F)(F)C(F)(F)F,AC50,[1],inconclusive: 267 µM
same,outcome,[2],inactive
same,outcome,[4],inactive
same,AC50,[3],inconclusive: 150 µM
COc1ccccc1NC(=O)c1cc2ccccc2cc1O,AC50,[1],inconclusive: 100 µM
same,AC50,[2],inconclusive: 171 µM
same,AC50,[4],inconclusive: 182 µM
same,AC50,[3],inconclusive: 100 µM
same,AC50,[5],active: 21.7 µM
same,AC50,[6],inconclusive: 0.0635 µM
c1cc[c]([Bi]([c]2ccccc2)[c]2ccccc2)cc1,AC50,[1],inconclusive: 26.6 µM
same,AC50,[2],inconclusive: 100 µM
same,outcome,[4],inactive
same,AC50,[3],active: 7.42 µM
same,AC50,[5],inconclusive: 2.62 µM
same,outcome,[6],inactive
CC1C(C)(C)C2=C(C(=O)CCC2)C1(C)C (stereo not drawn),outcome,[1],inactive
same,AC50,[2],inconclusive: 100 µM
same,outcome,[4],inactive
same,AC50,[3],active: 87.6 µM
same,AC50,[5],inconclusive: 100 µM
same,AC50,[6],inconclusive: 100 µM
Nc1cc(Cl)c(O)c(Cl)c1,outcome,[1],inactive
same,outcome,[2],inactive
same,AC50,[3],inconclusive: 7.74 µM
Cc1cccc(N(C)C)c1,outcome,[1],inactive
same,outcome,[2],inactive
same,AC50,[4],inconclusive: 167 µM
same,AC50,[3],inconclusive: 100 µM
same,AC50,[6],inconclusive: 100 µM
C=C/C(C)=C/C/C=C(\C)CCC=C(C)C,AC50,[1],inconclusive: 100 µM
same,AC50,[2],inconclusive: 0.916 µM
same,AC50,[4],inconclusive: 100 µM
same,AC50,[5],inconclusive: 4.04 µM
CC(=O)O[C@]1(C(C)=O)CC[C@H]2[C@@H]3C[C@H](C)C4=CC(=O)CC[C@]4(C)[C@H]3CC[C@@]21C,AC50,[1],inconclusive: 0.201 µM
same,AC50,[2],inconclusive: 24.3 µM
same,AC50,[4],active: 2.91 µM
same,AC50,[3],active: 2.34 µM
COc1cc(CCC(=O)CC(=O)CCc2ccc(O)c(OC)c2)ccc1O,AC50,[1],inconclusive: 0.199 µM
same,outcome,[2],inactive
same,AC50,[4],inconclusive: 100 µM
same,outcome,[5],inactive
O=C1OC2(c3cc(Br)c(O)c(Br)c3Oc3c2cc(Br)c(O)c3Br)c2c(Cl)c(Cl)c(Cl)c(Cl)c21,outcome,[1],inactive
same,AC50,[2],inconclusive: 121 µM
same,AC50,[4],inconclusive: 66 µM
same,AC50,[3],inconclusive: 66 µM
same,AC50,[5],inconclusive: 112 µM
CN(C)CCCN1c2ccccc2CCc2ccc(Cl)cc21,AC50,[1],inconclusive: 6.88 µM
same,AC50,[2],inconclusive: 2.44 µM
same,AC50,[3],active: 5.79 µM
CCCC/C=C\CCCCCCCCCC=O,AC50,[1],inconclusive: 100 µM
same,AC50,[2],inconclusive: 0.729 µM
same,AC50,[4],inconclusive: 24.7 µM
same,AC50,[3],active: 6.07 µM
same,AC50,[5],inconclusive: 100 µM
same,AC50,[6],inconclusive: 25 µM

# Already shown: an excerpt of the list.
smiles,measurement,setting,value
O=C(OC(=O)C(F)(F)C(F)(F)F)C(F)(F)C(F)(F)F,AC50,[3],inconclusive: 150 µM
COc1ccccc1NC(=O)c1cc2ccccc2cc1O,AC50,[1],inconclusive: 100 µM
same,AC50,[2],inconclusive: 171 µM
same,AC50,[4],inconclusive: 182 µM
same,AC50,[3],inconclusive: 100 µM
same,AC50,[5],active: 21.7 µM
same,AC50,[6],inconclusive: 0.0635 µM
c1cc[c]([Bi]([c]2ccccc2)[c]2ccccc2)cc1,AC50,[1],inconclusive: 26.6 µM
same,AC50,[2],inconclusive: 100 µM
same,outcome,[4],inactive
same,AC50,[3],active: 7.42 µM
same,AC50,[5],inconclusive: 2.62 µM
same,outcome,[6],inactive
